This is one part of the list. These are further read-outs of the screen, such as a control signal, another cell line or another target. No call is given for them. The list favours compounds with an active or inconclusive main result. Words in brackets tell the shape of the fitted curve; partial curves, single points and poor fits give uncertain potencies.

Consider 18 compounds from PubChem BioAssay AID2685 (National Center for Advancing Translational Sciences (NCATS), 2010).

The nature of the assay: qHTS Assay for Lipid Storage Modulators in Drosophila S3 Cells.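 On cell number change: cells counted by Cell Tracker Red CMTPX staining in the red channel.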 The settings on record: BODIPY lipid droplet fluorescence, 18-24 h; for cell number change: measured here: cell count max response, cells fed with added oleic acid. The essentials: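 Laser-scanning cytometry quantifies lipid droplet accumulation (500–530 nm total intensity; droplet/cell object ratio) in oleic acid-fed (400 uM added) Drosophila S3 cells treated with a concentration series. 20 uM Triacsin C defined 100% inhibition.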
(In general: Quantitative high-throughput screening tests each substance at several concentrations.)

[1] abbreviates: measured here: lipid fluorescence (Fed channel) AC50, cells fed with added oleic acid.
The mark [2] stands for this setting: measured here: cell number channel AC50, cells fed with added oleic acid.

Regarding `Cc1nc2c(C(=O)NCCC(C)C)c[nH]n2c(=O)c1Cl`, the cell number change is 13%. For the same compound, the AC50 under setting [1] is 6.51 µM [falling, single point].

As for `CN(c1ccccc1)C1CCCCC1NS(=O)(=O)c1ccc(Cl)cc1` (configuration not stated), the cell number change was -0.853%. For the same compound, the AC50 under setting [1] was 1.16 µM [falling, single point].

In the case of `CC(C)(C)c1ccccc1OCC(=O)NCCCn1ccnc1`, the cell number change is 4.2%. In addition, the AC50 under setting [1] was 29.1 µM [rising, single point].

On to `O=C(NCc1cccc2ccccc12)c1cccs1`, for which the cell number change came to 5.43%. The AC50 under setting [2] was 0.00461 µM [falling, full curve, poor fit].

Regarding `CC(C)(C)c1ccc(C(=O)N2CCN(CCNC(=O)C(=O)NCc3ccc(Cl)cc3)CC2)cc1`, the cell number change was -45.9%. Under setting [2], the AC50 is 25.9 µM [falling, partial curve]. Also, under setting [1], the AC50 was 2.91 µM [rising, partial curve, poor fit].

For the compound `Cc1ccc(C(=O)NCCc2ccccc2)cc1S(=O)(=O)N1CCOCC1`, the cell number change was -16.8%.

Turning to `CCOc1ccc(N(CC(=O)Nc2ccc(CC)cc2)S(=O)(=O)c2c(C)[nH]c(=O)[nH]c2=O)cc1`, under setting [1], the AC50 was 0.116 µM [rising, single point].

With `O=C(CSc1nnc(NC(=O)c2ccccc2F)s1)Nc1ccccc1F`, the cell number change is -11.7%. Also, the AC50 under setting [2] is 0.82 µM [falling, single point].

`COc1ccc(N2CCN(C3CCCN(C(=O)CSC)C3)CC2)cc1` (configuration not stated): the cell number change came to 12.6%. Under setting [1], the AC50 is 29.1 µM [rising, single point].

As for `COc1cc(/C=N/NC(=O)c2cc[n+]([O-])cc2)cc(OC)c1OC`, the cell number change amounted to 1.01%. Also, the AC50 under setting [1] is 6.51 µM [rising, single point].

In the case of `c1ccc(-c2cc(-c3ccc(N4CCOCC4)cc3)nc3ccccc23)cc1`, the cell number change is -6.68%.

For `Cc1cccc2c(C(=O)O)c3c(nc12)CCCCC3`, under setting [1], the AC50 was 20.6 µM [falling, partial curve].

Consider `COc1cc(OC)c(C2=NOC(C(=O)NCc3cccnc3)C2)cc1Cl` (configuration not stated), for which the cell number change was -2.35%. The AC50 under setting [1] is 0.00517 µM [rising, full curve, poor fit].

Regarding `CCOc1ccc(NC(=O)Nc2cc(C)ccc2F)cc1`, under setting [1], the AC50 was 0.146 µM [falling, full curve, poor fit].

For `COc1ccccc1COc1ccc2c(C)c(CC(=O)O)c(=O)oc2c1C`, the cell number change is -1.39%. For the same compound, the AC50 under setting [1] was 6.51 µM [falling, single point].

As to `CCCCC1S/C(=N/N=C/c2ccco2)NC1=O` (configuration not stated), the cell number change was -1.37%. Further, the AC50 under setting [1] was 29.1 µM [rising, single point].

As to `NNC(=O)COc1cccc(Oc2ccccc2)c1`, the cell number change was 23.3%. Further, the AC50 under setting [1] is 4.11 µM [rising, full curve].

With `Cc1ccc2c(c1)c1ncnc(N3CCN(c4ccccc4)CC3)c1n2C`, the cell number change was -17.7%. Also, the AC50 under setting [1] is 0.0731 µM [rising, full curve].

For orientation: AC50 means the concentration at which the activity in the assay is half-maximal. A high value points to activity only at high concentration.
